Data as given in PubChem BioAssay AID504808 (Drosophila RNAi Screening Center, 2011).
The deposit covers about 21,000 reagents; this is an unselected part of those with a known target gene and a result. In the full data, 18 (0.084%) are marked active. 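Raw counts without plate normalisation, one of two replicates; the ratio scores behind the calls were not deposited.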 Unmarked entries are inactive. Names joined by + are all predicted targets of the reagent. Reagent sequences are not shown. Not stated in the record: the amount of reagent, the time to read-out.

- Test: 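Chromatin factors that keep E2F targets switched off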 (primary screen)
- Cells: Drosophila S2 cells
- Reagents: long dsRNA against Drosophila genes
- Read-out: 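Firefly luciferase driven by E2F sites, normalised to Renilla luciferase on the same minimal promoter, measured by plate reader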
- Reading the numbers: E2F firefly: higher = more E2F reporter activity; Renilla normaliser: higher = more normaliser reporter signal
- Rule for the call: 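a knock-down counted as active when the firefly/Renilla E2F signal rose above 50%, a threshold chosen arbitrarily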

CG4452 [DRSC10422] — E2F firefly, rep 1: 69627; Renilla normaliser, rep 1: 3363
mask (multiple ankyrin repeats single KH domain) [DRSC15370] — E2F firefly, rep 1: 1.36e5; Renilla normaliser, rep 1: 6478
mask (multiple ankyrin repeats single KH domain) [DRSC16005] — E2F firefly, rep 1: 78586; Renilla normaliser, rep 1: 3916
mask (multiple ankyrin repeats single KH domain) [DRSC16018] — E2F firefly, rep 1: 66440; Renilla normaliser, rep 1: 3694
Polr2G (RNA polymerase II subunit G) [DRSC16068] — E2F firefly, rep 1: 55966; Renilla normaliser, rep 1: 199
CG34002 [DRSC09512] — E2F firefly, rep 1: 1.43e5; Renilla normaliser, rep 1: 3620
CG34002 [DRSC11953] — E2F firefly, rep 1: 97845; Renilla normaliser, rep 1: 4315
BckdhA (Branched chain keto acid dehydrogenase E1 subunit alpha) [DRSC16395] — E2F firefly, rep 1: 1.48e5; Renilla normaliser, rep 1: 6424
CG13813 [DRSC10068] — E2F firefly, rep 1: 1.17e5; Renilla normaliser, rep 1: 5246
CG17724 [DRSC06687] — E2F firefly, rep 1: 3002; Renilla normaliser, rep 1: 181
upd1 (unpaired 1) [DRSC20358] — E2F firefly, rep 1: 1.54e5; Renilla normaliser, rep 1: 7304
tacc (transforming acidic coiled-coil protein) [DRSC12019] — E2F firefly, rep 1: 76593; Renilla normaliser, rep 1: 3383
tacc (transforming acidic coiled-coil protein) [DRSC12388] — E2F firefly, rep 1: 92920; Renilla normaliser, rep 1: 3507
ng4 (new glue 4) [DRSC18805] — E2F firefly, rep 1: 1.31e5; Renilla normaliser, rep 1: 6005
Wnt2 (Wnt oncogene analog 2) [DRSC05160] — E2F firefly, rep 1: 1.38e5; Renilla normaliser, rep 1: 6341
Wnt2 (Wnt oncogene analog 2) [DRSC07574] — E2F firefly, rep 1: 1.36e5; Renilla normaliser, rep 1: 5097
Pdp1 (PAR-domain protein 1) [DRSC08896] — E2F firefly, rep 1: 48825; Renilla normaliser, rep 1: 3247
Pdp1 (PAR-domain protein 1) [DRSC08897] — E2F firefly, rep 1: 79901; Renilla normaliser, rep 1: 3027
Pdp1 (PAR-domain protein 1) [DRSC11251] — E2F firefly, rep 1: 88473; Renilla normaliser, rep 1: 3892
GILT2 (Gamma-interferon-inducible lysosomal thiol reductase 2) [DRSC14196] — E2F firefly, rep 1: 75111; Renilla normaliser, rep 1: 3675
CG6574 [DRSC16070] — E2F firefly, rep 1: 1.33e5; Renilla normaliser, rep 1: 6092
Ir48c (Ionotropic receptor 48c) [DRSC06154] — E2F firefly, rep 1: 88575; Renilla normaliser, rep 1: 4057
CG14346 [DRSC00376] — E2F firefly, rep 1: 1.55e5; Renilla normaliser, rep 1: 5486
CG7488 [DRSC16250] — E2F firefly, rep 1: 1.12e5; Renilla normaliser, rep 1: 5479
Npc2d (Niemann-Pick type C-2d) [DRSC14551] — E2F firefly, rep 1: 1.29e5; Renilla normaliser, rep 1: 5642
vnc + CG42455 [DRSC09867] — E2F firefly, rep 1: 77183; Renilla normaliser, rep 1: 3610
trsn (translin) [DRSC06078] — E2F firefly, rep 1: 1.58e5; Renilla normaliser, rep 1: 5993
C15 [DRSC13495] — E2F firefly, rep 1: 64227; Renilla normaliser, rep 1: 2847
C15 [DRSC14169] — E2F firefly, rep 1: 93716; Renilla normaliser, rep 1: 5979

Limited to “Renilla normaliser, rep 1”, for 3 of the entries above:
Wnt2 (Wnt oncogene analog 2) [DRSC05160]: 6341
Wnt2 (Wnt oncogene analog 2) [DRSC07574]: 5097
Pdp1 (PAR-domain protein 1) [DRSC08896]: 3247
